Measurements as given in article PMC7819943, “Rice protein-binding microarrays: a tool to detect cis-acting elements near promoter regions in rice”.
Some of the results follow.

Sequences of proteins named here, by UniProt entry; tags and fusion partners are left off.
UniProt Q0JBA9, entry or part of it: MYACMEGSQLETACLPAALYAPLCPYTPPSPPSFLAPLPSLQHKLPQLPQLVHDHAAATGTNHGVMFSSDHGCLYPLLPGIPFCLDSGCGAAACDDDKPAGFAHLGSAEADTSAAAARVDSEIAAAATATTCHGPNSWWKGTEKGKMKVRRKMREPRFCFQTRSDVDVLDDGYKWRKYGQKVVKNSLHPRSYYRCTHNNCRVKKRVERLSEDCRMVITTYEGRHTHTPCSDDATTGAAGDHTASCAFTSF

These sequences were tested against OsWRKY34 (Oryza sativa, UniProt Q0JBA9 1-250) (assay: protein-binding microarray (RPBM); PBS, 2% BSA, 51.3 ng/ul salmon testes DNA, 50 uM zinc acetate, 200 nM TF, 25 C, 1 h; high values mean tight binding). Conditions: protein: recombinant; tags: N-terminal polyhistidine and DsRed monomer fusion (pET32a); label: CyDye5-dUTP incorporated in the synthesized complementary strand; 3' TTTTT single-stranded linker to array surface; dsDNA, one strand shown.
In short: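 Transcription factors were each fused at the N-terminus to a polyhistidine tag plus DsRed and expressed in E. coli BL21-CodonPlus before Ni–NTA purification. Binding to a double-stranded custom Agilent array was carried out with 200 nM protein at 25 °C for 1 h in PBS, 2% BSA, salmon testes DNA and 50 µM zinc acetate. The binding signal is per-feature fluorescence intensity, in arbitrary units, on an Axon 4000B scanner.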
With “ACACTACCATTGATGTCTGTTTGGTTTTCACATTTTTTACCGGAGTCACCTAGTGCAG” the binding signal was 14300 fluorescence intensity (a.u.).
With “CCCCGTCCCGTCCGTCGCCGACGACGCTCACCCTCGCACGCGGAGTCACCTAGTGCAG” the binding signal was 8600 fluorescence intensity (a.u.).
In the case of “CTTTTTATCTCGTTTACTGATTTTTGTTGTATATCACACACGGAGTCACCTAGTGCAG”, the binding signal is reported as 13200 fluorescence intensity (a.u.).
In the case of “AATAAGACGAAAAGTCAAACGTTTGTCAAAAAGTCAACGGCGGAGTCACCTAGTGCAG”, the binding signal is reported as 8290 fluorescence intensity (a.u.).
In the case of “CTCACCTCTTGCAATTGCTGCTACTTGATTAATCATAATACGGAGTCACCTAGTGCAG”, the binding signal is reported as 8580 fluorescence intensity (a.u.).
“ACACTCTTTGGCCATTAATTGTCTTTTTAGAAGATCCTTTCGGAGTCACCTAGTGCAG” was tested, and the binding signal was 8940 fluorescence intensity (a.u.).
For “CGACACGAACAAGCATGCCTCCGCTTTCTGAGAACGTTTACGGAGTCACCTAGTGCAG”, the binding signal was 8170 fluorescence intensity (a.u.).
In the case of “TTCCCAACCCCTCTCTCTCGTTTTCCGCACGCACGCTTTTCGGAGTCACCTAGTGCAG”, the binding signal is reported as 9830 fluorescence intensity (a.u.).
In the case of “TGTAGGTTTGTCATCTTGCAGAATTTTTTAGTTTTAATTTCGGAGTCACCTAGTGCAG”, the binding signal is reported as 10500 fluorescence intensity (a.u.).
For “ATTCGGTACAGTACTACAGTGCTCGGGTGTATTTTTGCAACGGAGTCACCTAGTGCAG”, the binding signal was 8650 fluorescence intensity (a.u.).
With “GACTGATTTGTTTTTTTTTTCTCCCGGTTTTTTCGACGGACGGAGTCACCTAGTGCAG” the binding signal was 9270 fluorescence intensity (a.u.).
In the case of “GGAGGATGGGTGGGTGGGCTCCACCGCTCCATACGGCGAACGGAGTCACCTAGTGCAG”, the binding signal is reported as 8270 fluorescence intensity (a.u.).
In the case of “CACAGAGTCACAGACCAGTCCACCACCAACTACAGTTGCACGGAGTCACCTAGTGCAG”, the binding signal is reported as 10900 fluorescence intensity (a.u.).
“GACGAACGGTCAAACATGTTTAAAAAAGTCAACGCTGTCACGGAGTCACCTAGTGCAG” was tested, and the binding signal was 12900 fluorescence intensity (a.u.).
For “TCTCATGTCACCACCGCCGGCCGCTAGTGCCTTTCTGGGACGGAGTCACCTAGTGCAG”, the binding signal was 8750 fluorescence intensity (a.u.).
For “GAAGCCACTCGCCACTGCAAAGCGCTCTCTCTCTCTCTCTCGGAGTCACCTAGTGCAG”, the binding signal was 8570 fluorescence intensity (a.u.).
In the case of “TTCTTTTCTCCATTTTTACCTGTCTGACAGGATCTAGTATCGGAGTCACCTAGTGCAG”, the binding signal is reported as 8550 fluorescence intensity (a.u.).
“AGGTTCCATTCAGAGTGTATGAATCGCTGTTGGTTCTTATCGGAGTCACCTAGTGCAG” was tested, and the binding signal was 8890 fluorescence intensity (a.u.).
In the case of “TTTTGAAATCCGCGCCTACTTTTTTCTTGTCTCTTCTGTGCGGAGTCACCTAGTGCAG”, the binding signal is reported as 8400 fluorescence intensity (a.u.).
“TTTTTTTGTAATCCAGATCGTGCCAGTTCTCCTATTATTTCGGAGTCACCTAGTGCAG” was tested, and the binding signal was 13000 fluorescence intensity (a.u.).
“TGTTTCTGTCCTCACCCACATGGTTTTTTTAGCTATATTTCGGAGTCACCTAGTGCAG” was tested, and the binding signal was 11700 fluorescence intensity (a.u.).
For “GTTATCTCTTTTTTCATTTACCTTTGTTTTTTTTCTGTCGCGGAGTCACCTAGTGCAG”, the binding signal was 11300 fluorescence intensity (a.u.).
In the case of “ATGCCATTTCAATAGTGAACTTAGGTTATTTTGGCTTCAACGGAGTCACCTAGTGCAG”, the binding signal is reported as 8340 fluorescence intensity (a.u.).
